{
  "source": "the supplement of paper PMC8728848",
  "assay_in_all_cases": "glycan array binding signal (z-score within array); higher = stronger binding",
  "conditions_in_all_cases": "glycan notation: IUPAC condensed, linker removed",
  "key": {"Gal3S6S(b1-4)GlcNAc": {"biological_target": "Gal3S6S(b1-4)GlcNAc", "outline": "(§1)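 Columns mapping to the same glycan were averaged after glycan names were converted to IUPAC-condensed notation. The data come from 3228 arrays in the Consortium for Functional Glycomics database, limited to those with an available protein sequence. Binding is reported as a within-array Z-score averaged across arrays of one protein sequence and across linkers.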"}, "Gal3S6S(b1-4)GlcNAc6S": {"biological_target": "Gal3S6S(b1-4)GlcNAc6S", "outline": "as §1"}, "Gal4S(b1-4)GlcNAc": {"biological_target": "Gal4S(b1-4)GlcNAc", "outline": "as §1"}, "Gal4S6S(b1-4)GlcNAc": {"biological_target": "Gal4S6S(b1-4)GlcNAc", "outline": "as §1"}, "Gal6P(b1-4)GlcNAc": {"biological_target": "Gal6P(b1-4)GlcNAc", "outline": "as §1"}, "Gal6S(b1-3)GlcNAc": {"biological_target": "Gal6S(b1-3)GlcNAc", "outline": "as §1"}, "Gal6S(b1-3)GlcNAc6S": {"biological_target": "Gal6S(b1-3)GlcNAc6S", "outline": "as §1"}, "Gal6S(b1-4)Glc": {"biological_target": "Gal6S(b1-4)Glc", "outline": "as §1"}, "Gal6S(b1-4)Glc6S": {"biological_target": "Gal6S(b1-4)Glc6S", "outline": "as §1"}, "Gal6S(b1-4)GlcNAc": {"biological_target": "Gal6S(b1-4)GlcNAc", "outline": "as §1"}, "Gal6S(b1-4)GlcNAc6S": {"biological_target": "Gal6S(b1-4)GlcNAc6S", "outline": "as §1"}, "GalNAc(a1-3)Gal": {"biological_target": "GalNAc(a1-3)Gal", "outline": "as §1"}, "GalNAc(a1-3)GalNAc": {"biological_target": "GalNAc(a1-3)GalNAc", "outline": "as §1"}, "[1]": {"biological_target": "GalNAc(a1-3)GalNAc(b1-3)Gal(a1-4)Gal(b1-4)Glc", "outline": "as §1"}, "[2]": {"biological_target": "GalNAc(a1-3)GalNAc(b1-3)Gal(a1-4)Gal(b1-4)GlcNAc", "outline": "as §1"}, "GalNAc(b1-3)Gal": {"biological_target": "GalNAc(b1-3)Gal", "outline": "as §1"}, "[3]": {"biological_target": "GalNAc(b1-3)Gal(a1-4)Gal(b1-4)GlcNAc", "outline": "as §1"}, "[4]": {"biological_target": "GalNAc(b1-3)Gal(a1-4)Gal(b1-4)GlcNAc(b1-3)Gal(b1-4)Glc", "outline": "as §1"}, "[5]": {"biological_target": "GalNAc(b1-3)Gal(a1-6)Gal(b1-4)Glc", "outline": "as §1"}, "GalNAc(b1-3)GalNAc": {"biological_target": "GalNAc(b1-3)GalNAc", "outline": "as §1"}, "GalNAc(b1-3)GlcNAc": {"biological_target": "GalNAc(b1-3)GlcNAc", "outline": "as §1"}, "GalNAc(b1-4)Gal(b1-4)Glc": {"biological_target": "GalNAc(b1-4)Gal(b1-4)Glc", "outline": "as §1"}, "GalNAc(b1-4)GlcNAc": {"biological_target": "GalNAc(b1-4)GlcNAc", "outline": "as §1"}, "[6]": {"biological_target": "GalNAc(b1-4)GlcNAc(b1-2)Man", "outline": "as §1"}, "[7]": {"biological_target": "GalNAc(b1-4)GlcNAc(b1-2)Man(a1-3)[GalNAc(b1-4)GlcNAc(b1-2)Man(a1-6)]Man(b1-4)GlcNAc(b1-4)GlcNAc", "outline": "as §1"}, "[8]": {"biological_target": "GalNAc(b1-4)GlcNAc(b1-3)GalNAc(b1-4)GlcNAc", "outline": "as §1"}, "GalNAc(b1-4)GlcNAc6S": {"biological_target": "GalNAc(b1-4)GlcNAc6S", "outline": "as §1"}, "GalNAc(b1-6)GalNAc": {"biological_target": "GalNAc(b1-6)GalNAc", "outline": "as §1"}, "GalNAc3S(b1-4)GlcNAc": {"biological_target": "GalNAc3S(b1-4)GlcNAc", "outline": "as §1"}, "GalNAc3S(b1-4)GlcNAc3S": {"biological_target": "GalNAc3S(b1-4)GlcNAc3S", "outline": "as §1"}, "[9]": {"biological_target": "GalNAc3S(b1-4)[Fuc(a1-3)]GlcNAc", "outline": "as §1"}, "GalNAc4S6S(b1-4)GlcNAc": {"biological_target": "GalNAc4S6S(b1-4)GlcNAc", "outline": "as §1"}, "GalNAc6S(b1-4)GlcNAc": {"biological_target": "GalNAc6S(b1-4)GlcNAc", "outline": "as §1"}, "Glc(a1-4)Glc": {"biological_target": "Glc(a1-4)Glc", "outline": "as §1"}, "[10]": {"biological_target": "Glc(a1-4)Glc(a1-4)Glc(a1-4)Glc", "outline": "as §1"}, "Glc(a1-6)Glc(a1-6)Glc": {"biological_target": "Glc(a1-6)Glc(a1-6)Glc", "outline": "as §1"}, "[11]": {"biological_target": "Glc(a1-6)Glc(a1-6)Glc(a1-6)Glc", "outline": "as §1"}, "Glc(b1-4)Glc": {"biological_target": "Glc(b1-4)Glc", "outline": "as §1"}},
  "note": "The list shows a part of the results.",
  "data": [
    {"binder": "PX9961W-pdi-543-27-543 (Parabacteroides distasonis) (protein) EGNATTTSYFLNDQQAIDAIDGLYERFHQEGCYGRELFWEQGAACDIVWGRTRGYNSLATLAYTGDESPLRDVFSRMYSTMSRANWIIQELVKKEKGTTLTAVEKRSLGEAYFSRGWAHYLIAYRYGTDKQGVPFVRYEDFPDDYDNSIPPQQATVMDNYKLIIEDMDKAIAYLPIFESYDADNRGRAHQAAAVAFKAKTYAYWATWDATQWNNVIEMVNQLENNYNRDLAPTFAELFSSDLKDYWNAEYLWTIPSIGGALPGGTEFPGIILENKGWGKYNGWGQMKPSYDIYEEMAKDGKGNDRLVRSILEYNQEFPFFGETRKFWSTSDLEAGFMINKYMDAFKYSDPVGEGAVSANGDWPTVRVNFPIIRFAEMLLFRAEAYLMTGQADKATADINRIRLRSNLTPLTGTATMKDLYHERRCELAFEFTDHLFDLKRWNRSSNADIKTLADKELNAHPRIRRYEDRANPESAFTIIGYEDYTNKNAYQAHMMVFPYPSEEITKSNGQLKQNEGY", "values": [
      {"measurement": "glycan array binding signal (z-score)", "setting": "Gal3S6S(b1-4)GlcNAc", "value": -0.311},
      {"measurement": "glycan array binding signal (z-score)", "setting": "Gal3S6S(b1-4)GlcNAc6S", "value": 0.158},
      {"measurement": "glycan array binding signal (z-score)", "setting": "Gal4S(b1-4)GlcNAc", "value": -0.282},
      {"measurement": "glycan array binding signal (z-score)", "setting": "Gal4S6S(b1-4)GlcNAc", "value": -0.35},
      {"measurement": "glycan array binding signal (z-score)", "setting": "Gal6P(b1-4)GlcNAc", "value": -0.969},
      {"measurement": "glycan array binding signal (z-score)", "setting": "Gal6S(b1-3)GlcNAc", "value": -1.13},
      {"measurement": "glycan array binding signal (z-score)", "setting": "Gal6S(b1-3)GlcNAc6S", "value": 0.139},
      {"measurement": "glycan array binding signal (z-score)", "setting": "Gal6S(b1-4)Glc", "value": -0.274},
      {"measurement": "glycan array binding signal (z-score)", "setting": "Gal6S(b1-4)Glc6S", "value": 0.19},
      {"measurement": "glycan array binding signal (z-score)", "setting": "Gal6S(b1-4)GlcNAc", "value": -0.756},
      {"measurement": "glycan array binding signal (z-score)", "setting": "Gal6S(b1-4)GlcNAc6S", "value": 0.176},
      {"measurement": "glycan array binding signal (z-score)", "setting": "GalNAc(a1-3)Gal", "value": -0.723},
      {"measurement": "glycan array binding signal (z-score)", "setting": "GalNAc(a1-3)GalNAc", "value": -0.183},
      {"measurement": "glycan array binding signal (z-score)", "setting": "[1]", "value": -0.637},
      {"measurement": "glycan array binding signal (z-score)", "setting": "[2]", "value": -0.389},
      {"measurement": "glycan array binding signal (z-score)", "setting": "GalNAc(b1-3)Gal", "value": -0.473},
      {"measurement": "glycan array binding signal (z-score)", "setting": "[3]", "value": 0.216},
      {"measurement": "glycan array binding signal (z-score)", "setting": "[4]", "value": -0.656},
      {"measurement": "glycan array binding signal (z-score)", "setting": "[5]", "value": -0.299},
      {"measurement": "glycan array binding signal (z-score)", "setting": "GalNAc(b1-3)GalNAc", "value": -0.487},
      {"measurement": "glycan array binding signal (z-score)", "setting": "GalNAc(b1-3)GlcNAc", "value": -0.383},
      {"measurement": "glycan array binding signal (z-score)", "setting": "GalNAc(b1-4)Gal(b1-4)Glc", "value": 0.432},
      {"measurement": "glycan array binding signal (z-score)", "setting": "GalNAc(b1-4)GlcNAc", "value": -0.443},
      {"measurement": "glycan array binding signal (z-score)", "setting": "[6]", "value": -0.529},
      {"measurement": "glycan array binding signal (z-score)", "setting": "[7]", "value": 0.441},
      {"measurement": "glycan array binding signal (z-score)", "setting": "[8]", "value": -0.156},
      {"measurement": "glycan array binding signal (z-score)", "setting": "GalNAc(b1-4)GlcNAc6S", "value": 0.192},
      {"measurement": "glycan array binding signal (z-score)", "setting": "GalNAc(b1-6)GalNAc", "value": -0.126},
      {"measurement": "glycan array binding signal (z-score)", "setting": "GalNAc3S(b1-4)GlcNAc", "value": -0.888},
      {"measurement": "glycan array binding signal (z-score)", "setting": "GalNAc3S(b1-4)GlcNAc3S", "value": -0.444},
      {"measurement": "glycan array binding signal (z-score)", "setting": "[9]", "value": 1.18},
      {"measurement": "glycan array binding signal (z-score)", "setting": "GalNAc4S6S(b1-4)GlcNAc", "value": -0.291},
      {"measurement": "glycan array binding signal (z-score)", "setting": "GalNAc6S(b1-4)GlcNAc", "value": 1.01},
      {"measurement": "glycan array binding signal (z-score)", "setting": "Glc(a1-4)Glc", "value": 0.007},
      {"measurement": "glycan array binding signal (z-score)", "setting": "[10]", "value": -0.875},
      {"measurement": "glycan array binding signal (z-score)", "setting": "Glc(a1-6)Glc(a1-6)Glc", "value": -0.416},
      {"measurement": "glycan array binding signal (z-score)", "setting": "[11]", "value": -0.169},
      {"measurement": "glycan array binding signal (z-score)", "setting": "Glc(b1-4)Glc", "value": -0.067}
    ]}
  ]
}
